No constants are given. Whether binding was seen depends on the method and setting. Some entries that bind do so weakly or less than the wild type.

Chains of the proteins cited; added tags and fusions are not shown. Lines headed by an entry give the natural chain unless they say otherwise; changes in a name come on top.
UniProt Q9UI95: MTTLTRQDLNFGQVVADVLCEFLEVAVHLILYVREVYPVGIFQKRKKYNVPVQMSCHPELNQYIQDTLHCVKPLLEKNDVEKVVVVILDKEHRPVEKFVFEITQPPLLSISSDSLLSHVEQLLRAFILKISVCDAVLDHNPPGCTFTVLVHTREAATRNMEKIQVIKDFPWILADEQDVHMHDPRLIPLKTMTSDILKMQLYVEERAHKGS

In assay [1] the target is T1, full-length SHLD3 (human) (UniProt Q6ZNX1).
T1 sequence: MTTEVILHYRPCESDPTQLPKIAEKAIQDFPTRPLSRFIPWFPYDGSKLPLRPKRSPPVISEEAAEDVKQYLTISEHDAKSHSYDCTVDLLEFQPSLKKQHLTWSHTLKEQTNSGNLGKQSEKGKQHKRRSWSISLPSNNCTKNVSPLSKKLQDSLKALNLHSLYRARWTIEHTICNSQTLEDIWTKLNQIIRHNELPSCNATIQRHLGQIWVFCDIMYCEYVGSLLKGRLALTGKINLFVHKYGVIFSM
As to the kind of experiment: co-purification; co-expressed in Hi5 insect cells with GST fused to SHLD2; purified as a complex, tag cleaved with PreScission, cation exchange (Resource-S) and SEC.

In the next assay the target is REV7^R124A (human) (UniProt Q9UI95). As to the kind of experiment: SEC; REV7 dimerization: 20 µM REV7 or MBP-REV7 constructs on Superdex-200 3.2/300 in buffer B; both purified. For orientation: SEC sorts molecules by how far they enter the pores of the column.

Turning to “REV7 (of the insect-cell Shieldin complex) (from UniProt Q9UI95 1-211)”, in assay [1], the binding entry is recorded as “binds”. As to REV7^R124A (from UniProt Q9UI95 1-211), in the assay with REV7^R124A (human), the binding result was “no binding (tested: 20 µM)”. As for “REV7^R124A (of the insect-cell Shieldin complex) (from UniProt Q9UI95 1-211)”, the binding entry in assay [1] was “binds”.
